For test [1], the target named is T1, Tap-tagged Rrp41 (yeast) (UniProt P46948).
T1 sequence: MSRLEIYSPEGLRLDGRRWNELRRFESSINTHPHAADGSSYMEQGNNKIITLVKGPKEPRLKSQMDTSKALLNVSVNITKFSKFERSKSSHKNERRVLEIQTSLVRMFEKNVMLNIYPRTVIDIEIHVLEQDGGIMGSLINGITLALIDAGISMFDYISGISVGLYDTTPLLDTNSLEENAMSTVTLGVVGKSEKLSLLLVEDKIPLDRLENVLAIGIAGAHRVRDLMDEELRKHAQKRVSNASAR
Description: affinity purification with mass spectrometry; large-scale tandem affinity purification of Tap-tagged proteins from 2 g of total extract of wild-type, not4Δ or caf40Δ cells, 150 mM NaCl; SDS-PAGE, coomassie, bands identified by MALDI-Tof fingerprint.

Test [2] addresses T2, Tap-tagged Caf130 (yeast) (UniProt P53280).
T2 sequence: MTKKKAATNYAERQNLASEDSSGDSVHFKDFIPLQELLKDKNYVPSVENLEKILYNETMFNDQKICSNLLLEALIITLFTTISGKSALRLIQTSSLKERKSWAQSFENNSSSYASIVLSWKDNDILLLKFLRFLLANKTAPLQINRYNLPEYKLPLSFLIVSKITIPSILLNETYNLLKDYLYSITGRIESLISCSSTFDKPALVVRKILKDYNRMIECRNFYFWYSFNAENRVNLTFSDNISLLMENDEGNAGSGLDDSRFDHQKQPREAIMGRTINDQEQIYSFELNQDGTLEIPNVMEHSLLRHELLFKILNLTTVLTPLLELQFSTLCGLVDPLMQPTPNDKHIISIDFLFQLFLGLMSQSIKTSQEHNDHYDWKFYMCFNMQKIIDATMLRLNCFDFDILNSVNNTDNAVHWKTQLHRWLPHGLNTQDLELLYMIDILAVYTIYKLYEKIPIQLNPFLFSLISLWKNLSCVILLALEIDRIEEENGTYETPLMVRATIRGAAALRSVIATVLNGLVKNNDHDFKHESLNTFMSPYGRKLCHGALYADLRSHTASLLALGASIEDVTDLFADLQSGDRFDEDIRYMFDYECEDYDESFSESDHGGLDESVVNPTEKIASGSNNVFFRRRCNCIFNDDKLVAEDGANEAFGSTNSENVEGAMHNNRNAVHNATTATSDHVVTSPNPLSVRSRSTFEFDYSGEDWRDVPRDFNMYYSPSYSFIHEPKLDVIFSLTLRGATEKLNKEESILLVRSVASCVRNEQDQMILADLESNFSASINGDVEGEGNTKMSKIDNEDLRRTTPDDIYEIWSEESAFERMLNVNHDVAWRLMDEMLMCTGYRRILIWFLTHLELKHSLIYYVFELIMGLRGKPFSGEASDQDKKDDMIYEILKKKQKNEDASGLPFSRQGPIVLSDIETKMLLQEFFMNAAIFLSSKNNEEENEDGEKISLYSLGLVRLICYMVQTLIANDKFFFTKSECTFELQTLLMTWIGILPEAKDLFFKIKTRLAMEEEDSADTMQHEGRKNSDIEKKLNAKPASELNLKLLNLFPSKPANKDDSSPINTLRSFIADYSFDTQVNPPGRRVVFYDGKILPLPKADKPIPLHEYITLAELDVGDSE
Described as above.

The target of test [3] is T1, Tap-tagged Rrp41 (yeast). Description: affinity purification with mass spectrometry; large-scale tandem affinity purification of Tap-tagged Rrp41 from 2 g of total extract of wild-type cells, 150 mM NaCl; SDS-PAGE, coomassie, MALDI-Tof fingerprint.

Results are given in words; binding and its absence hold for the method and conditions named. In cells and extracts the contact can be indirect. Here binding means that the protein was enriched with, or labelled near, the bait; the list need not be complete. For part of these data: A no says only that the protein was not detected with the bait. Tags and fused reporters may be left off the sequences shown.

B1: Not5 (protein, UniProt Q12514 1-560)
chain: MSQRKLQQDIDKLLKKVKEGIEDFDDIYEKFQSTDPSNSSHREKLESDLKREIKKLQKHRDQIKTWLSKEDVKDKQSVLMTNRRLIENGMERFKSVEKLMKTKQFSKEALTNPDIIKDPKELKKRDQVLFIHDCLDELQKQLEQYEAQENEEQTERHEFHIANLENILKKLQNNEMDPEPVEEFQDDIKYYVENNDDPDFIEYDTIYEDMGCEIQPSSSNNEAPKEGNNQTSLSSIRSSKKQERSPKKKAPQRDVSISDRATTPIAPGVESASQSISSTPTPVSTDTPLHTVKDDSIKFDNSTLGTPTTHVSMKKKESENDSEQQLNFPPDRTDEIRKTIQHDVETNAAFQNPLFNDELKYWLDSKRYLMQPLQEMSPKMVSQLESSLLNCPDSLDADSPCLYTKPLSLPHPTSIFFPNEPIRFVYPYDVPLNLTNNENDTDNKFGKDSKAKSKKDDDIYSRTSLARIFMKFDLDTLFFIFYHYQGSYEQFLAARELFKNRNWLFNKVDRCWYYKEIEKLPPGMGKSEEESWRYFDYKKSWLARRCGNDFVYNEEDFEKL
Consider B1, for which the binding entry was “binds” in the test with Tap-tagged Rrp41 (yeast) [1], “binds” in test [2] and “no binding (only from wild-type cells)” with Tap-tagged Rrp41 (yeast) [3].

The record behind these values is PMC2727002.
